According to publication PMC4552428:
Results are given in words; binding and its absence hold for the method and conditions named. Some results given as binding are weak or reduced against the parent protein; the word gives no strength. For some of these results: Sequences can lack the tags named with a protein.

Protein sequences, listed by entry. Tags and fused reporters are not part of them. Residues count along the entry.
UniProt P39743, residues 421-482: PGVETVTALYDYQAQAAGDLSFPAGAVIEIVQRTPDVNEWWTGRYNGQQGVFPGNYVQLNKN

Key:
[1] = molecular target: T1, Ysc84 SH3 domain, Gal4 binding domain (bait) fusion (S. cerevisiae) (UniProt P32793); test: two-hybrid; yeast two-hybrid; Las17 polyproline region on the activation plasmid, SH3 domains on the Gal4 binding domain (bait) plasmid
T1 sequence: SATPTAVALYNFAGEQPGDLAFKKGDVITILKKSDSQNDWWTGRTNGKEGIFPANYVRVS

[2] = molecular target: Rvs167 SH3 domain, Gal4 binding domain (bait) fusion (S. cerevisiae) (UniProt P39743); test: as above

binding [1]	binding [2]	Substance
binds	binds	Las17 polyproline region (residues 292–536) P388A, two-hybrid activation-domain fusion (from UniProt Q12446 292-536) (domain or fragment)
binds	binds	Las17 polyproline region (residues 292–536), two-hybrid activation-domain fusion (from UniProt Q12446 292-536) (domain or fragment)
